Source: PubChem BioAssay AID652243 (Drosophila RNAi Screening Center, 2013)
In all, the deposit lists about 24,000 reagents; this is an unselected part of those that have a named target and a result. Over the whole deposit, 246 (1%) were called active. 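Plates not normalised; calls are printed but the firefly/Renilla ratio behind them is not deposited; fold cut for lowering reported inconsistently.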 Raw values are not corrected between plates. A plus sign joins genes that one reagent is predicted to hit. The record does not give: the amount of reagent.

Test: 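Knock-downs that decrease or increase androgen receptor reporter signal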 (primary screen)
Cell system: Drosophila S2R+ cells
Reagents: long dsRNA against Drosophila genes
Timing: 72 h (48 h, then 24 h hormone)
Challenge: synthetic androgen R1881 at 10 nM for 24 h
Measured: 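Per-well raw luminescence of the androgen-driven firefly reporter and of the Renilla control, two replicates each, without normalisation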
Reading the numbers: firefly reporter light: higher = more light from androgen-responsive reporter; Renilla control light: higher = more constitutive control signal (cell number, transfection)
Hit rule: 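Hit when the log firefly-to-Renilla ratio dropped or increased by a fixed fold versus the mean of GFP or LacZ controls across duplicate plates; lowering cut given as 1.5 and as 3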
Calls: active = hit: reporter lowered or raised; inactive = no hit

target,dsRNA,"firefly reporter light, replicate 1","firefly reporter light, replicate 2","Renilla control light, replicate 1","Renilla control light, replicate 2",call
CG18428,DRSC15326,1.34e5,1.37e5,2.57e6,2.54e6,inactive
CG18428,DRSC29185,4.59e5,5.03e5,1.19e6,1.16e6,inactive
Prosalpha4 (Proteasome alpha4 subunit),DRSC20271,3.25e5,3.60e5,2.96e6,2.42e6,inactive
Prosalpha4 (Proteasome alpha4 subunit),DRSC25287,4.53e5,3.17e5,4.92e5,4.42e5,inactive
CG14298,DRSC14777,2.29e5,2.60e5,3.71e6,3.10e6,inactive
Nopp140,DRSC11872,3.49e5,3.70e5,2.87e6,2.78e6,inactive
Nopp140,DRSC24599,3.98e5,3.05e5,3.46e5,3.95e5,inactive
Nopp140,DRSC39061,7.24e5,7.12e5,1.69e6,1.76e6,inactive
tctn + B9d2,DRSC03160,1.60e5,2.02e5,2.16e6,1.56e6,inactive
Hsp27 (Heat shock protein 27),DRSC11190,1.09e6,3.26e5,1.00e6,3.56e5,inactive
Hsp27 (Heat shock protein 27),DRSC26877,2.80e5,2.94e5,4.08e5,4.31e5,inactive
CG18301,DRSC02662,2.65e5,1.88e5,1.45e6,1.56e6,inactive
CG4281,DRSC18521,84273,58510,7.98e5,4.79e5,inactive
CG4281,DRSC28415,5.46e5,8.59e5,5.88e5,1.30e6,inactive
CG33640,DRSC38916,7.93e5,7.21e5,1.85e6,2.01e6,inactive
ea (easter),DRSC16939,1.37e5,1.24e5,1.86e6,2.30e6,inactive
ea (easter),DRSC25595,5.95e5,4.83e5,7.80e5,6.87e5,inactive
CG8191,DRSC20091,9.53e5,8.60e5,5.19e6,3.65e6,inactive
CG8173,DRSC20088,5.40e5,5.05e5,4.13e6,4.01e6,inactive
CG8173,DRSC36823,,,,,inactive
PolQ (DNA polymerase theta),DRSC17006,47263,44612,7.53e5,8.85e5,inactive
CG14795,DRSC18513,3.21e5,3.45e5,2.67e6,2.37e6,inactive
CG14795,DRSC26338,3.99e5,4.89e5,4.31e5,9.59e5,inactive
Cyp6t1 (Cytochrome P450 6t1),DRSC20564,3.85e5,3.54e5,1.06e6,8.99e5,inactive
Cyp6t1 (Cytochrome P450 6t1),DRSC24235,5.43e5,4.83e5,4.11e5,4.05e5,inactive
TyrRII (Tyramine receptor II),DRSC15150,39935,50181,1.33e6,1.67e6,active
TyrRII (Tyramine receptor II),DRSC25254,6.12e5,8.11e5,1.02e6,1.07e6,inactive
Hr4 (Hormone receptor 4),DRSC18599,62347,71799,1.17e6,8.17e5,inactive
Hr4 (Hormone receptor 4),DRSC23080,9.58e5,1.34e6,1.46e6,2.23e6,inactive
Hr4 (Hormone receptor 4),DRSC23251,7.21e5,9.53e5,1.63e6,1.77e6,inactive
Hr4 (Hormone receptor 4),DRSC25130,7.52e5,1.06e6,5.03e5,5.91e5,inactive
Hr4 (Hormone receptor 4),DRSC27857,7.95e5,3.53e5,3.55e6,1.40e6,inactive
Hr4 (Hormone receptor 4),DRSC28298,5.23e5,7.87e5,1.32e6,2.45e6,inactive
ClpP (Caseinolytic protease proteolytic subunit),DRSC02806,1.45e6,8.22e5,2.14e6,1.70e6,inactive
Tret1-2 (Trehalose transporter 1-2),DRSC07117,4.18e5,2.92e5,1.61e6,2.07e6,inactive
Tret1-2 (Trehalose transporter 1-2),DRSC28985,6.29e5,4.16e5,1.27e6,9.54e5,inactive
CAH7 (Carbonic anhydrase 7),DRSC15524,1.52e5,1.91e5,1.88e6,2.44e6,inactive
CG11426,DRSC11658,2.31e5,2.93e5,2.79e6,2.63e6,inactive
CG11426,DRSC27815,3.09e5,3.58e5,5.61e5,8.64e5,inactive
CG11426,DRSC37070,,,,,inactive
CG34258,DRSC38685,1.95e6,1.92e6,1.69e6,2.19e6,inactive
Ip6k (Inositol hexakisphosphate kinase),DRSC04054,4.81e5,3.78e5,1.56e6,1.35e6,inactive
Ip6k (Inositol hexakisphosphate kinase),DRSC24285,9.89e5,7.80e5,1.15e6,9.45e5,inactive
ena (enabled),DRSC05779,2.04e5,72746,3.54e5,2.91e5,inactive
ena (enabled),DRSC07610,1.01e6,7.89e5,1.49e6,1.03e6,inactive
ena (enabled),DRSC25393,7.07e5,6.46e5,5.75e5,4.07e5,inactive
CG40992 (retired record),DRSC38637,9.14e5,6.31e5,2.46e6,2.05e6,inactive
CG16739,DRSC06621,60703,75603,1.04e6,9.80e5,inactive
CG6583,DRSC02972,2.89e5,2.37e5,2.01e6,1.76e6,inactive
CG6583,DRSC27517,2.96e5,2.38e5,5.39e5,7.55e5,inactive
CG4872,DRSC19921,71346,83234,6.35e5,4.99e5,inactive
CG12010,DRSC08218,95100,69888,6.50e5,9.72e5,inactive
CG33919,DRSC38888,1.20e6,1.05e6,2.33e6,1.50e6,inactive
yellow-g2,DRSC08338,52057,65307,8.92e5,8.40e5,inactive
Noa36,DRSC16761,1.06e5,72866,7.04e5,5.96e5,inactive
pho (pleiohomeotic),DRSC17219,1.61e5,1.31e5,3.21e6,1.91e6,inactive
pho (pleiohomeotic),DRSC37622,5.12e5,4.34e5,1.91e6,1.61e6,active
CG17075,DRSC00483,9.62e5,9.12e5,4.39e6,1.99e6,inactive
CG17075,DRSC26505,2.47e5,2.11e5,2.92e5,3.10e5,inactive
Nthl1 (Nth-like DNA glycosylase 1),DRSC03183,1.18e5,1.24e5,1.18e6,1.29e6,inactive
CG12691,DRSC17880,2.24e5,2.41e5,3.47e6,2.85e6,inactive
Galphaf (G protein alpha subunit f),DRSC11171,1.76e5,1.14e5,1.07e6,1.22e6,inactive
l(3)87Df (lethal (3) 87Df),DRSC16982,1.66e5,2.68e5,1.76e6,2.25e6,inactive
Treh (Trehalase),DRSC04548,7.40e5,7.74e5,1.59e6,1.72e6,inactive
Treh (Trehalase),DRSC28721,3.10e5,4.26e5,1.13e6,1.03e6,inactive
GXIVsPLA2,DRSC10243,29258,17086,1.95e5,2.13e5,inactive
GXIVsPLA2,DRSC29361,4.61e5,6.89e5,1.06e6,1.06e6,inactive
CG15534,DRSC15070,1.61e5,1.62e5,1.74e6,1.69e6,inactive
CG15534,DRSC26433,1.76e5,2.74e5,3.47e5,5.43e5,inactive
Ski6,DRSC02491,2.69e5,2.64e5,2.46e6,2.44e6,inactive
MFS3 (Major Facilitator Superfamily Transporter 3),DRSC00664,1.23e5,1.18e5,9.09e5,1.27e6,inactive
MFS3 (Major Facilitator Superfamily Transporter 3),DRSC28601,4.49e5,3.45e5,1.10e6,1.21e6,inactive
bchs (blue cheese),DRSC03126,1.10e5,77830,9.08e5,8.47e5,inactive
Nmdar2 (NMDA receptor 2),DRSC18183,3.34e5,3.29e5,4.95e6,3.86e6,inactive
Nmdar2 (NMDA receptor 2),DRSC18511,2.85e5,2.92e5,3.59e6,3.87e6,inactive
Nmdar2 (NMDA receptor 2),DRSC18569,3.25e5,3.26e5,3.06e6,2.16e6,inactive

Reformatted: entries from further up
CG14795 [DRSC26338]
- firefly reporter light, replicate 1: 3.99e5
- firefly reporter light, replicate 2: 4.89e5
- Renilla control light, replicate 1: 4.31e5
- Renilla control light, replicate 2: 9.59e5
- call: inactive

Cyp6t1 (Cytochrome P450 6t1) [DRSC20564]
- firefly reporter light, replicate 1: 3.85e5
- firefly reporter light, replicate 2: 3.54e5
- Renilla control light, replicate 1: 1.06e6
- Renilla control light, replicate 2: 8.99e5
- call: inactive

Cyp6t1 (Cytochrome P450 6t1) [DRSC24235]
- firefly reporter light, replicate 1: 5.43e5
- firefly reporter light, replicate 2: 4.83e5
- Renilla control light, replicate 1: 4.11e5
- Renilla control light, replicate 2: 4.05e5
- call: inactive

TyrRII (Tyramine receptor II) [DRSC15150]
- firefly reporter light, replicate 1: 39935
- firefly reporter light, replicate 2: 50181
- Renilla control light, replicate 1: 1.33e6
- Renilla control light, replicate 2: 1.67e6
- call: active

TyrRII (Tyramine receptor II) [DRSC25254]
- firefly reporter light, replicate 1: 6.12e5
- firefly reporter light, replicate 2: 8.11e5
- Renilla control light, replicate 1: 1.02e6
- Renilla control light, replicate 2: 1.07e6
- call: inactive

Hr4 (Hormone receptor 4) [DRSC18599]
- firefly reporter light, replicate 1: 62347
- firefly reporter light, replicate 2: 71799
- Renilla control light, replicate 1: 1.17e6
- Renilla control light, replicate 2: 8.17e5
- call: inactive

Hr4 (Hormone receptor 4) [DRSC23080]
- firefly reporter light, replicate 1: 9.58e5
- firefly reporter light, replicate 2: 1.34e6
- Renilla control light, replicate 1: 1.46e6
- Renilla control light, replicate 2: 2.23e6
- call: inactive

Hr4 (Hormone receptor 4) [DRSC23251]
- firefly reporter light, replicate 1: 7.21e5
- firefly reporter light, replicate 2: 9.53e5
- Renilla control light, replicate 1: 1.63e6
- Renilla control light, replicate 2: 1.77e6
- call: inactive

Hr4 (Hormone receptor 4) [DRSC25130]
- firefly reporter light, replicate 1: 7.52e5
- firefly reporter light, replicate 2: 1.06e6
- Renilla control light, replicate 1: 5.03e5
- Renilla control light, replicate 2: 5.91e5
- call: inactive

Hr4 (Hormone receptor 4) [DRSC27857]
- firefly reporter light, replicate 1: 7.95e5
- firefly reporter light, replicate 2: 3.53e5
- Renilla control light, replicate 1: 3.55e6
- Renilla control light, replicate 2: 1.40e6
- call: inactive
